Results from PubChem BioAssay AID504847 (National Center for Advancing Translational Sciences (NCATS), 2011).
In all, about 400,000 compounds went through this assay and about 3,700 (0.93%) were called active. The shares of active, inactive and inconclusive entries below differ from those in the screen. The call rests on the fitted dose curve; in most records, active means well fitted inhibition curve with a large enough effect; inconclusive means small, poorly fitted or top-dose-only effect, or another doubt; inactive means no such curve, though single readings can be large or run the other way. Potencies beside an inconclusive call are fits to weak or partial responses and may not hold up.

Protein sequences, listed by entry. Tags and fused reporters are not part of them. Lines headed by an entry give the natural chain unless they say otherwise; changes in a name come on top.
UniProt P11473: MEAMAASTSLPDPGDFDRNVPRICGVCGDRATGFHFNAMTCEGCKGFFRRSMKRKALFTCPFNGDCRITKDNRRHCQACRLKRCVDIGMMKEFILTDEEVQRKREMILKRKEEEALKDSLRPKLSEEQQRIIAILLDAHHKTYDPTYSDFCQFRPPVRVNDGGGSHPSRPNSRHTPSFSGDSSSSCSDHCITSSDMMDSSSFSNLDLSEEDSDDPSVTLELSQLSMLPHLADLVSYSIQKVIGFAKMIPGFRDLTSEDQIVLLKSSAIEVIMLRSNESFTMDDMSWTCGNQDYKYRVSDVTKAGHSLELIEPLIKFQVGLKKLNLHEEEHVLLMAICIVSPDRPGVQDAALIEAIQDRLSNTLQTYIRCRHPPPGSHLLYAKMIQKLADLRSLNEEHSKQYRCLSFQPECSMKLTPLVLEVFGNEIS

What follows are molecules tested against Vitamin D3 receptor (Homo sapiens) (UniProt P11473) (assay: Inhibitors of the vitamin D receptor (VDR): qHTS). Details: VDR-SRC2-3 peptide fluorescence polarization, 2 h; max response, negative = inhibition: hits give low values.
Method in brief: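 The screen uses fluorescence polarization to detect compounds that interfere with recruitment of the SRC2-3 coactivator peptide to VDR; plates are read after 2 h at room temperature.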
On the % scale 0 is the no-effect control and ±100 the full control effect; potency means the concentration at half of the fitted maximal effect.

| Structure (SMILES) | Potency | max response, negative = inhibition |
| --- | --- | --- |
| Cc1onc(-c2ccccc2)c1C(=O)NCCCc1ccccc1 | inconclusive: 89.1 µM [inhibitor, single point] | – |
| O=C(c1ccc(Br)cc1)N1CCCc2ccccc21 | inconclusive: 63.1 µM [inhibitor, single point] | – |
| CC(C)(C)OC(=O)N1CCN(C(=O)OCC2c3ccccc3-c3ccccc32)CC1C(=O)O (stereo not given) | – | inactive: 3.38% |
| CCOC(=O)N1CCc2c(sc(NCc3cccc(F)c3)c2C(=O)Nc2ccc(OC)cc2)C1 | inconclusive: 12.6 µM [inhibitor, partial curve, poor fit] | – |
| O=C(OCn1ncc(Br)c(Br)c1=O)c1ccc(F)cc1 | active: 25.1 µM | – |
| Cc1ccc(N(C)C(=O)c2ccc3c(Cl)c4c(nc3c2)CCC4)cc1C | inconclusive: 100 µM [inhibitor, single point] | – |
| CCNc1ncc2nc(-c3ccccc3)c(=O)n(C3CC3)c2n1 | inconclusive: 89.1 µM [inhibitor, partial curve, poor fit] | – |
| CCC1(c2ccccc2)NC(=O)N(CC(=O)NNC(=O)c2ccc(F)cc2)C1=O (stereo not given) | – | inactive: -29.7% |
| O=C(O)C(=O)/C(=C\c1ccccc1)c1ccc2ccccc2n1 | – | inactive: 12.9% |
| C#CCOc1c(Cl)cc(/C=C2/C(=O)ON=C2C)cc1OC | inconclusive: 50.1 µM [inhibitor, partial curve, poor fit] | – |
| COc1ccc(C(O)(CCN2CCCCC2)C2CCCCC2)cc1 (stereo not given) | inconclusive: 89.1 µM [inhibitor, single point] | – |
| Cn1c(=O)[nH]c(=O)c2c1[nH]c(=S)n2Cc1ccc(Cl)cc1 | inconclusive: 63.1 µM [inhibitor, partial curve, poor fit] | – |
| CCCn1cc(S(=O)(=O)CC(=O)N2CCc3ccccc32)c2ccccc21 | inconclusive: 11.2 µM [inhibitor, partial curve, poor fit] | – |
| Nc1nc(-c2ccccn2)nc(N)c1Cc1ccc(Cl)cc1Cl | – | inactive: 19.5% |
| Cc1ccc(OCCN2CCN(C(=O)CCC(=O)Nc3nnc(C(C)C)s3)CC2)cc1 | – | inactive: 8.34% |
| Fc1ccc(COc2ccccc2C(=S)N2CCCC2)cc1 | active: 50.1 µM | – |
| Cc1cccc(Cn2c(=O)n(CCCC(=O)NCc3ccccc3Cl)c(=O)c3ccccc32)c1 | inconclusive: 100 µM [inhibitor, partial curve, poor fit] | – |
| Cc1ccc(Nc2nc(NCCO)nc3c2cnn3C)cc1Cl | inconclusive: 100 µM [inhibitor, partial curve, poor fit] | – |
| COC(=O)c1ccc2[nH]c3c(c2c1)CC(C)CC3 (stereo not given) | inconclusive: 22.4 µM [inhibitor, full curve, poor fit] | – |
| NC(=O)c1c(NC(=O)c2cc(-c3ccc(F)cc3)on2)sc2c1CCCC2 | active: 56.2 µM | – |
| COc1ccccc1CN1CCCC2(CCN(C(=O)c3ccco3)CC2)C1 | – | inactive: -5.55% |
| COc1cccc2[nH]c3c(Cl)ncnc3c12 | inconclusive: 7.94 µM [inhibitor, partial curve, poor fit] | – |
| Cc1ccc(Nc2c(-c3ccc(N4CCOCC4)cc3)nc3cccc(C)n23)cc1 | – | inactive: -9.2% |

| Structure (SMILES) | Potency | max response, negative = inhibition |
| --- | --- | --- |
| Cc1c(N=C2C=CC(=O)c3ccccc32)c(=O)n(-c2ccccc2)n1C | inconclusive: 89.1 µM [inhibitor, single point] | – |
| O=C1NC(=S)S/C1=C\c1ccc(SCc2ccco2)o1 | active: 44.7 µM | – |
| COC(=O)c1ccc(NC(=S)NCc2ccco2)cc1 | – | inactive: -8.36% |
| COc1cc(/C=C2/C(=O)NN(c3ccc(Cl)c(Cl)c3)C2=O)cc([N+](=O)[O-])c1O | active: 56.2 µM | – |
| CCC1NC(=S)N(C2CCCCC2)C1=O (stereo not given) | – | inactive: 5.82% |
| COc1c(C)cc(Br)cc1C(=O)Nc1ccc(N2CCN(S(C)(=O)=O)CC2)cc1 | – | inactive: -3.28% |
| N#Cc1c(N2CCOCC2)nc(-c2ccco2)c2c1CCCC2 | inconclusive: 50.1 µM [inhibitor, partial curve, poor fit] | – |
| O=C(NNS(=O)(=O)c1ccccc1[N+](=O)[O-])c1cccnc1 | inconclusive: 39.8 µM [inhibitor, partial curve, poor fit] | – |
| S=c1[nH]nc(-c2cccc(Cl)c2)n1CCN1CCCCC1 | inconclusive: 50.1 µM [inhibitor, partial curve, poor fit] | – |
| CC(C)C[C@H](N)c1nnc(S(=O)(=O)Cc2ccc(F)cc2)o1 | active: 31.6 µM | – |
| CC1CCN(c2oc(Cc3cccc4ccccc34)nc2C#N)CC1 | – | inactive: -4.76% |
| Cc1cc(Br)c(OCc2ccc(C(=O)N/N=C3\CC4CC=CC34)cc2)c(Br)c1 (stereo not given) | inconclusive: 100 µM [inhibitor, single point] | – |
| Cc1cc[n+](-c2[nH]c(=O)sc2/C=N/N=C(\[O-])c2ccccc2)cc1 | – | inactive: -14.6% |
| O=C(CSCCO)Nc1cccc([N+](=O)[O-])c1 | inconclusive: 100 µM [inhibitor, single point] | – |
| CN1/C(=C\C(=O)c2ccco2)C(C)(C)c2ccccc21 | inconclusive: 56.2 µM [inhibitor, partial curve, poor fit] | – |
| CCc1cccc(NC(=O)CSC2=NS(=O)(=O)c3ccccc32)c1 | active: 12.6 µM | – |
| Cc1cccc(NC(=O)C2CCN(C(=O)[C@@H]3Cc4ccccc4CN3)CC2)c1 | inconclusive: 56.2 µM [inhibitor, partial curve, poor fit] | – |
| COC(=O)/C(=C\c1cc(OC)c(OC)c(OC)c1)c1nc2ccccc2[nH]1 | inconclusive: 79.4 µM [inhibitor, single point] | – |
| CN(C)S(=O)(=O)c1ccc2c(c1)nc1n2CCC1 | inconclusive: 89.1 µM [inhibitor, single point] | – |
| CC(/C=C1\SC(=S)N(CC(=O)O)C1=O)=C\c1ccccc1 | active: 44.7 µM | – |
| Cc1cc(/C=C(\C#N)C(=O)O)c(C)n1CC1CCCO1 (stereo not given) | inconclusive: 22.4 µM [inhibitor, partial curve, poor fit] | – |
| Cc1cc(C)n(-c2nnc(C)n2/N=C/c2cc(Br)ccc2OCc2ccccc2)n1 | inconclusive: 79.4 µM [inhibitor, partial curve] | – |

Sorted by count of non-hydrogen atoms (ascending): 4 of the compounds above

| Structure (SMILES) | Potency | max response, negative = inhibition |
| --- | --- | --- |
| O=C1NC(=S)S/C1=C\c1ccc(SCc2ccco2)o1 | active: 44.7 µM | – |
| S=c1[nH]nc(-c2cccc(Cl)c2)n1CCN1CCCCC1 | inconclusive: 50.1 µM [inhibitor, partial curve, poor fit] | – |
| O=C(NNS(=O)(=O)c1ccccc1[N+](=O)[O-])c1cccnc1 | inconclusive: 39.8 µM [inhibitor, partial curve, poor fit] | – |
| Cc1cccc(NC(=O)C2CCN(C(=O)[C@@H]3Cc4ccccc4CN3)CC2)c1 | inconclusive: 56.2 µM [inhibitor, partial curve, poor fit] | – |
